A short description of this data set: general procedure: Fmoc solid-phase peptide synthesis; Fmoc-Rink Amide AM resin. Particulars: for crude mass / crude yield: whole synthesis; for crude yield: scale of the general procedure 33 mmol; for final HPLC purity: Analytical HPLC.
The mark [1] stands for this setting: oxidative folding step, hydrochloride.

The values that follow come from patent US20230331778 (published 2023).

“Acetyl-D-Cys(Trt)-D-Ala-D-Arg(Pbf)-D-Arg(Pbf)-D-Arg(Pbf)-D-Ala-D-Arg(Pbf)-Rink Amide Resin” had a step yield (purification step, hydrochloride) of 50%. Under “hydrochloride, run 1”, this substance gave a crude mass of 18 g and a crude yield of 96.7%. Moreover, where the note is “hydrochloride, run 2”, the crude mass was 18.4 g and the crude yield was found to be 98.3%.
With Etelcalcetide, under setting [1], the “final HPLC purity” value worked out at 99.8% and the oxidative folding yield was 43%. Also, the “final HPLC purity” value (purification step, chloride salt) came to 99.8%.
